This is an account of results in patent US20210292306A1, “NOVEL INDOLE DERIVATIVE AND ANTI-CANCER CONPOSITION CONTAINING SAME” (KOREA RESEARCH INSTITUTE OF BIOSCIENCE AND BIOTECHNOLOGY, priority 2016, published 2021).

pIC50: −log10 of the molar value.

What all share (type): cell-based
The subject of experiment [1] is K562. Kind of experiment: Anti-proliferative activity, multiple drug resistance study (MTT assay), parent line. The conditions noted are these: Homo sapiens, K562, 96 h. Here is the method:
(§1) HeLa cells (ATCC, USA), which are a human cervical cancer cell line, were dispensed into a 96-well plate at 2×10^3 cells/well, and the cells were treated with DMSO or the indole derivatives of the present invention, and then allowed to grow for 4 days. And then, MTT (3-(4,5-Dimethylthiazol-2-yl)-2,5-diphenyltetrazolium bromide) reagent was added to the wells at 10 μl/well. After 2 hours, the absorbance was measured at “OD 450” and statistical values were obtained using the plizm6 program. The data represent mean values of the results of two repeated assays (Table 1). Specifically, K562 and MCF7 (Bio Evaluation Center, Korea Research Institute of Bioscience and Biotechnology, Korea), and K562/ADR and MCF7/ADR (Bio Evaluation Center, Korea Research Institute of Bioscience and Biotechnology, Korea), which are multiple drug-resistant cell lines of the above mentioned cell lines, respectively, were cultured on a microtiter plate at 1-3×10^3 cells/well.
In general terms: Tetrazolium assays rely on reduction of a dye to a coloured formazan, in cell work by metabolically active cells.

The subject of experiment [2] is MCF7. The experiment is described as above. To be noted: Homo sapiens, MCF7, 96 h. Here is the method:
as §1

Experiment [3] has as its system MCF7/ADR. The experiment can be described thus: Anti-proliferative activity in cancer cells showing multiple drug resistance (MTT assay). The conditions noted are these: Homo sapiens, NCI/ADR-RES, 96 h. Here is the method: as §1

What is called pIC50 is −log10 of the IC50, conventionally taken in molar units. Turning to `COc1cc2c(c(OC)c1OC)-c1ccc(OC)c(=O)cc1[C@@H](NC(C)=O)CC2` [colchicine, reference compound], the negative logarithm of the IC50 (pIC50) in experiment [1] is 7.80; in experiment [2], 8.57; in experiment [3], 7.03.
